# Test results: PubChem BioAssay AID2685 (National Center for Advancing Translational Sciences (NCATS), 2010)
# The other results are listed elsewhere or left out. These are further read-outs of the screen, such as a control signal, another cell line or another target. No call is given for them. The list favours compounds with an active or inconclusive main result. Potencies come from curve fits of mixed quality, noted in brackets.
# Test: qHTS Assay for Lipid Storage Modulators in Drosophila S3 Cells;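 for cell number change: cells counted by Cell Tracker Red CMTPX staining in the red channel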
# Settings: BODIPY lipid droplet fluorescence, 18-24 h; for cell number change: measured here: cell count max response, cells fed with added oleic acid
# In short: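 Drosophila S3 cells got compounds at several concentrations plus oleic acid (400 uM solution). Laser-scanning cytometry with 488 nm excitation read lipid droplets at 500-530 nm and cells at 575-640 nm. Percent activity was relative to 20 uM Triacsin C.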
# [1] = measured here: cell number channel AC50, cells fed with added oleic acid
# [2] = measured here: lipid fluorescence (Fed channel) AC50, cells fed with added oleic acid
SMILES,cell number change,AC50 [1],AC50 [2]
CC(C)N(C(=O)CSc1ccc(S(=O)(=O)N2CCCCC2)cn1)c1ccccc1,-0.889%,"0.517 µM [falling, single point]","0.164 µM [falling, full curve, poor fit]"
CC(=O)N1CCN(c2ccc(NCc3ccc(C(C)C)cc3)cc2)CC1,-51.2%,"9.2 µM [falling, partial curve]","16.4 µM [falling, partial curve]"
Cn1nc(-c2ccccc2)cc1NC(=O)Nc1ccc(F)cc1,-24.9%,–,"1.3 µM [falling, full curve]"
O=C(/C=C/c1ccccc1[N+](=O)[O-])c1ccccc1Br,-7.69%,–,–
O=[N+]([O-])c1cccc(C2(O)COc3ccccc3O2)c1 (centres undefined),36.9%,–,–
CCC(C)(C)n1nnnc1CN1CCN(c2nc3ccc(C)cc3cc2C#N)CC1,-15.2%,–,"6.51 µM [rising, single point]"
CCCc1cc(=O)[nH]c(SCC(=O)NCc2ccc3c(c2)OCO3)n1,30.4%,"0.013 µM [rising, full curve, poor fit]","0.092 µM [rising, full curve, poor fit]"
CCOC(=O)N1CCN(C(=O)c2cn(C)c3ccc(S(=O)(=O)N4CCOCC4)cc3c2=O)CC1,-13.1%,–,–
Cn1c(Nn2cnnc2)nc2ccccc21,-16.7%,"0.0517 µM [falling, full curve, poor fit]","0.651 µM [falling, full curve, poor fit]"
O=C(NNC(=O)C1CC=CCC1)c1ccccc1Br (centres undefined),17.1%,–,"3.26 µM [rising, full curve, poor fit]"
Cc1ccc(NC(=O)Cn2ncn3c(cc4ccccc43)c2=O)cc1F,-4.58%,"6.51 µM [falling, single point]",–
Cc1nc2sccn2c(=O)c1S(=O)(=O)Nc1ccc(N2CCOCC2)c(Cl)c1,-2.31%,–,"0.13 µM [falling, partial curve, poor fit]"
CCOc1ccc(C(=O)NCC(=O)NC(C)c2ccc(-n3ccnc3)cc2)cc1OCC (centres undefined),–,–,"6.51 µM [rising, single point]"
CSCCC(NC(=O)c1ccc(Cl)cc1)C(=O)OCC(C)=O (centres undefined),–,"0.0731 µM [rising, full curve, poor fit]",–
COc1ccc2cc(C(c3nnnn3C(C)(C)C)N3CCc4ccccc4C3)c(=O)[nH]c2c1 (centres undefined),-13.4%,–,"6.51 µM [rising, single point]"
Cc1ccc(-n2ncc3c2CCCC3NC(=O)CCCN2CCCC2=O)cc1C (centres undefined),-6.25%,–,–
CC1(C)CC(=O)C=C(NCCN2CCN(C(=O)Nc3ccc(Cl)c(Cl)c3)CC2)C1,17.1%,–,"29.1 µM [rising, single point]"
O=C(CSc1nc2sc3c(c2c(=O)n1-c1ccccc1)CCCC3)N/N=C/c1ccccc1C(=O)O,22.6%,–,"18.4 µM [falling, single point]"
Cc1nc(NC(=O)CCc2ccccc2)sc1C,-18%,–,–
CC(=O)c1ccc(OCc2cc(C(=O)N3CC4C[C@@H]5CC3C[C@H](C4)C5)no2)cc1,-9.54%,–,"29.1 µM [falling, single point]"

# Some values from the list:
# `Cc1ccc(NC(=O)Cn2ncn3c(cc4ccccc43)c2=O)cc1F` | cell number change: -4.58%
# `O=C(NNC(=O)C1CC=CCC1)c1ccccc1Br` (centres undefined) | cell number change: 17.1%

# (listing goes on)

SMILES,cell number change,AC50 [1],AC50 [2]
CCOc1ccc(CCNS(=O)(=O)c2cn(C)cn2)cc1OCC,-33.1%,"9.2 µM [falling, partial curve]",–
Cc1ccccc1CN1CCN(C(=O)c2ccc(S(=O)(=O)NCc3ccco3)cc2)CC1,-5.26%,–,"0.291 µM [rising, single point]"
CCOc1cccc2cc(C(N)=O)c(=NCc3ccccc3)oc12,–,–,"25.9 µM [rising, single point]"
COc1ccc(CNC(=O)c2cc(C3CC3)nc3c2cnn3C(C)C)cc1,7.35%,–,–
O=C(O)CCC(=O)Nc1ccc(Sc2ccc([N+](=O)[O-])cc2)cc1,6.19%,"6.51 µM [rising, single point]",–
CCn1c(COc2cccc3cccnc23)nnc1SC(F)F,-45.2%,–,–
COc1ccc(C(=O)NCCn2cc(SCC(=O)NCC3CCCO3)c3ccccc32)cc1OC (centres undefined),-30.2%,"18.4 µM [falling, single point]",–
C=CCNC(=O)/C(C#N)=C/c1ccc(C(=O)O)cc1,-17.8%,–,"23.1 µM [falling, single point]"
COCCCn1c(C)csc1=Nc1cccnc1,39.5%,"9.2 µM [rising, partial curve]",–
COc1ccc(N(CC(=O)NC2CCCC2)C(=O)CCC(=O)Nc2cc(C)on2)cc1,5.26%,–,"22.4 µM [falling, single point]"
COc1cc2[nH]c(=S)nc(NCCC(C)C)c2cc1OC,10.5%,"2.59 µM [rising, partial curve, poor fit]","1.46 µM [rising, partial curve]"
O=C(O)c1ccc(S(=O)(=O)NCC2CCCO2)cc1 (centres undefined),14.5%,–,"1.84 µM [falling, partial curve]"
Cc1ccc(C(=O)N/C(=C/c2ccco2)C(=O)N2CCCCC2)cc1,54.2%,"29.1 µM [rising, single point]",–
CCOC(=O)C1CCCN(c2c(N3CCN(C4CCCCC4)CC3)c(=O)c2=O)C1 (centres undefined),7.77%,–,"0.517 µM [rising, full curve, poor fit]"
Cc1ccc(NC(=O)c2ccoc2C)cc1C,–,"4.11 µM [falling, single point]",–
CC(C)CCN1CCC(C)(NC(=O)c2ccccc2)C1=O (centres undefined),-17.3%,"1.03 µM [rising, single point]","0.00517 µM [rising, full curve, poor fit]"
CCC(C)(C)C1CCC(=NNC(=S)Nc2ccccc2)CC1 (centres undefined),-66.5%,"29.1 µM [falling, partial curve, poor fit]","29.1 µM [falling, partial curve, poor fit]"
CC(C(=O)NC1CCCCC1)N1C(=O)c2cccc3cccc1c23 (centres undefined),-5.78%,–,–
Cn1c(SCC(=O)C(C)(C)C)nnc1-c1ccncc1,-19.3%,"0.082 µM [falling, full curve]","23.1 µM [falling, partial curve]"
